Assay results taken from PMC8208988.
Changes are numbered by the printed parent chain. Names may count otherwise. No constants are given. Whether binding was seen depends on the method and setting. Binding seen in cells or lysates may run through a third protein. Some entries that bind do so weakly or less than the wild type. Sequences can lack the tags named with a protein.

T1: FLAG-tagged MTERF4 (human) (UniProt Q7Z6M4)
T1 sequence: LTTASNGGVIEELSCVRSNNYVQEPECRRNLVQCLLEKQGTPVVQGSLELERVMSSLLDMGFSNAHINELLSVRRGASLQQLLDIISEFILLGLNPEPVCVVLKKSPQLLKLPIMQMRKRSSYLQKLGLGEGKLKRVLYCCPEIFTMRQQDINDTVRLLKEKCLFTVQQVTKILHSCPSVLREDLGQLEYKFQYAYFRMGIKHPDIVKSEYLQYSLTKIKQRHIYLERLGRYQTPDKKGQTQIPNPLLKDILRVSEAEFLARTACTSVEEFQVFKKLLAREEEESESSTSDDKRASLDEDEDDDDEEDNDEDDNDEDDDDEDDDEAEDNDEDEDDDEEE

B1: HA-tagged NSUN4 triple mutant K215A, H218A, R275A (enzyme, UniProt Q96CB9 26-384)
chain: RYKKKWAATEPKFPAVRLALQNFDMTYSVQFGDLWPSIRVSLLSEQKYGALVNNFAAWDHVSAKLEQLSAKDFVNEAISHWELQSEGGQSAAPSPASWACSPNLRCFTFDRGDISRFPPARPGSLGVMEYYLMDAASLLPVLALGLQPGDIVLDLCAAPGGKTLALLQTGCCRNLAANDLSPSRIARLQAILASYVPEEIRDGNQVRVTSWDGRKWGELEGDTYDRVLVDVPCTTDRHSLHEEENNIFKASRKKERQILPVLQVQLLAAGLLATKPGGHVVYSTCSLSHLQNEYVVQGAIELLANQYSIQVQVEDLTHFRRVFMDTFCFFSSCQVGELVIPNLMANFGPMYFCKMRRLT
B2: HA-tagged NSUN4 ΔN 26-36 (enzyme, UniProt Q96CB9)
chain: KFPAVRLALQNFDMTYSVQFGDLWPSIRVSLLSEQKYGALVNNFAAWDHVSAKLEQLSAKDFVNEAISHWELQSEGGQSAAPSPASWACSPNLRCFTFDRGDISRFPPARPGSLGVMEYYLMDAASLLPVLALGLQPGDIVLDLCAAPGGKTLALLQTGCCRNLAANDLSPSRIARLQKILHSYVPEEIRDGNQVRVTSWDGRKWGELEGDTYDRVLVDVPCTTDRHSLHEEENNIFKRSRKKERQILPVLQVQLLAAGLLATKPGGHVVYSTCSLSHLQNEYVVQGAIELLANQYSIQVQVEDLTHFRRVFMDTFCFFSSCQVGELVIPNLMANFGPMYFCKMRRLT
B3: HA-tagged NSUN4 quadruple mutant V65R, R136A, I139R, R141A (enzyme, UniProt Q96CB9 26-384)
chain: B1 chain with V40R, R111A, I114R, R116A, A190K, A193H, A250R

Target: T1, FLAG-tagged MTERF4 (human)
Experiment: co-sedimentation; continuous 10-30% sucrose gradient of mitochondrial lysates (2% digitonin, 100 mM KCl, 20 mM MgCl2, 10 mM Tris-HCl pH 7.5) from HEK 293T cells co-expressing MTERF4-FLAG and an NSUN4-HA variant; fractions immunoblotted for HA, FLAG, bL12m, bS16m

| Binder | binding |
| --- | --- |
| B1 | binds |
| B2 | binds |
| B3 | no binding |
